Experimental data published in patent US5863893A, “Factor VIIa inhibitors from kunitz domain proteins” (Genentech, Inc., priority 1995, dated 1999).
At least one peptide structure holds a part that was inferred or is arguable (an end, a ring closure or a residue). Positions of bridges follow the written chain, without caps; N, C: chain ends. No end group written: not given here.

Experiments:
[1] = system: New Zealand white rabbits; assay: Rabbit deep medial injury model (carotid artery patency and thrombus weight); assay type: in vivo
Procedure: Male New Zealand white rabbits (~4 kg) were anesthetized to surgical anesthesia plane with an IM injection of Ketamine/Xylaxine. The rabbits were placed supine on a restraining board, warmed to 37° C., and the neck and inner thigh area shaved. Teflon catheters were replaced in a marginal ear vein and femoral artery for drug delivery and sample collection respectively. Prior to treatment, blood samples were collected for coagulation tests (APTT and PT). Bleeding time was assessed from a cut made in the cuticle portion of a hind limb nail. Incisions were made in the neck region and the entire left common carotid artery and its branches were surgically isolated. An ultrasonic flow probe (Transonics®) was placed on the common carotid approximately 5 cm caudal to the common-internal bifurcation. After blood flow reached a stable baseline, drugs (saline or test compounds) were delivered via the marginal ear vein. A deflated embolectomy catheter (Fogarty®, 3F) was then introduced into the lumen of the common via an incision in the lingual branch. Blood flow through the artery was stopped briefly while the catheter was introduced and loosely secured with 2-0 silk tie at the incision site. After the catheter was in place and secure, blood flow was restored. The deflated balloon was advanced to within 2 mm of the flow probe and inflated with saline until resistance of the vessel wall was felt. The catheter was pulled back with a steady motion to the first branch and then deflated. […] Over 40 minutes, blood samples were taken for APTT and PT measurements, cuticle bleeding times were assessed and blood flow through the carotid monitored. Duration of patency was defined as the total amount of time (maximum=40 minutes) that any measurable blood flow is detected in the artery. […] If any thrombus was present, it was removed, blotted and the weight recorded.
[Heparin was dosed as a 25 u/kg bolus followed by a continuous infusion of 1) 0.5 u/kg/min or 2) 1 u/kg/min. […] With the exception of the patency data, values are expressed as means ±sem.]

[2] = system: normal human plasma; assay: Tissue factor initiated prothrombin time (PT) assay; assay type: biochemical; conditions: 40 μM inhibitor, initiated by TF membranes, uninhibited clotting time 30 s
[3] = system: normal human plasma; assay: Activated partial thromboplastin time (APTT) assay; assay type: biochemical; conditions: 40 μM inhibitor, uninhibited clotting time 31 s
Procedure: For the activated partial thromboplastin time (APTT) assays, the activation time was set at 120 sec and acquisition time at 300 to 600 sec depending on the expected outcome of the assay. Citrated normal human plasma and inhibitor were incubated together. The sample (plasma and inhibitor) and activator (Instrumentation Laboratories Ellagic acid/Phospholipid mix Test Reagent) were automatically pipetted and incubated together for 2 min at 37° C., then CaCl2 was added and clotting time determined by means of optical assessment. The total incubation time of inhibitor with plasma was ca. 3 min before addition of activator, and 5 min before addition of CaCl2.

[4] = system: rabbit plasma; assay: PT clotting time in rabbit plasma; assay type: biochemical; conditions: 50 μM, rabbit thromboplastin diluted two-fold
Procedure: Samples of rabbit plasma were assayed using an MLA 800 coagulometer and Dade reagents. Actin FS® was the activator in the APTT assay. Rabbit Thromboplastin with Ca++ was used for the PT assays; the rabbit thromboplastin was diluted two-fold. All mutant inhibitors tested prolonged clotting by at least one fold. […] A greater than 10 fold prolongation of the clotting time at 40 μM was observed.

Compound	Patency (%) ([1]; 2 mg/kg IV bolus, animals with carotid artery blood flow ≥5 minutes)	Clot (mgs) ([1]; 2 mg/kg IV bolus, thrombus weight, mean ±sem)	patency and clot size compared to the saline control (in words) ([1]; doses as in Table III)	PT clotting time, fold prolongation [2] [fold]	APTT clotting time, fold prolongation [3] [fold]	PT, fold increase over baseline [4] [fold]
CC[C@H](C)[C@@H]1NC(=O)[C@H](CC(C)C)NC(=O)[C@H](C)NC(=O)[C@H](CCCNC(=N)N)NC(=O)[C@@H]2CSSC[C@@H]3NC(=O)CNC(=O)CNC(=O)[C@H](Cc4ccc(O)cc4)NC(=O)[C@H](Cc4ccccc4)NC(=O)[C@H](Cc4ccccc4)NC(=O)[C@@H]4CCCN4C(=O)[C@H](C)NC(=O)[C@H](CSSC[C@H](NC(=O)[C@H](Cc4ccc(O)cc4)NC(=O)[C@H](CCC(=O)O)NC(=O)[C@H](CCC(=O)O)NC(=O)[C@H]([C@@H](C)O)NC(=O)[C@H](CC(=O)O)NC(=O)[C@H](Cc4ccccc4)NC(=O)[C@H](CC(N)=O)NC(=O)[C@H](CC(N)=O)NC(=O)[C@H](CCCNC(=N)N)NC(=O)[C@H](CC(N)=O)NC(=O)CNC(=O)[C@H](Cc4ccc(O)cc4)NC3=O)C(=O)N[C@@H](C)C(=O)N[C@@H](C)C(=O)N[C@@H](C(C)C)C(=O)N[C@H](C(=O)NCC(=O)N[C@@H](CO)C(=O)N[C@@H](C)C(=O)O)CSSC[C@H](NC(=O)[C@@H](NC(=O)[C@H](CCC(=O)O)NC(=O)[C@H](CCCNC(=N)N)NC(=O)[C@@H](N)C(C)C)C(C)C)C(=O)N[C@@H](CO)C(=O)N[C@@H](CCC(=O)O)C(=O)N[C@@H](CCC(N)=O)C(=O)N[C@@H](C)C(=O)N[C@@H](CCC(=O)O)C(=O)N3CCC[C@H]3C(=O)NCC(=O)N3CCC[C@H]3C(=O)N2)NC(=O)[C@H](CCCCN)NC(=O)CNC(=O)[C@H](CCC(=O)O)NC(=O)[C@H]([C@@H](C)O)NC(=O)[C@H](C(C)C)NC(=O)[C@H](CC(=O)O)NC(=O)[C@H](Cc2ccccc2)NC(=O)[C@H](Cc2ccc(O)cc2)NC(=O)[C@H](Cc2c[nH]c3ccccc23)NC(=O)[C@H](CCCNC(=N)N)NC(=O)[C@H](CC(C)C)NC1=O [TF7I-C]	83	19.4 ± 14.6	significantly prolonged patency and reduced clot size	–	–	–
VREVCSEQAEPGPCKALMKRWYFDVTEGKCAPFYYGGCYGNRNNFDTEEYCAAVCGSA (disulfide 5-55, 14-38, 30-51) [IV-32B]	–	–	–	1.4	1.3	1.2
VREVCSEQAEPGPCRALMKRWYFDVTEGKCAPFVYGGCYGNRNNFDTEEYCAAVCGSA (disulfide 5-55, 14-38, 30-51) [IV-54C]	–	–	–	2.1	2.2	3.5
